Results are given in words; binding and its absence hold for the method and conditions named. In cells and extracts the contact can be indirect. A yes stands for co-enrichment or nearness to the bait. Other partners may have been found.

Amino acid sequences for entries named in this document (tags omitted). A change or cut given only in a name is not applied to a line headed by its entry.
UniProt Q06710: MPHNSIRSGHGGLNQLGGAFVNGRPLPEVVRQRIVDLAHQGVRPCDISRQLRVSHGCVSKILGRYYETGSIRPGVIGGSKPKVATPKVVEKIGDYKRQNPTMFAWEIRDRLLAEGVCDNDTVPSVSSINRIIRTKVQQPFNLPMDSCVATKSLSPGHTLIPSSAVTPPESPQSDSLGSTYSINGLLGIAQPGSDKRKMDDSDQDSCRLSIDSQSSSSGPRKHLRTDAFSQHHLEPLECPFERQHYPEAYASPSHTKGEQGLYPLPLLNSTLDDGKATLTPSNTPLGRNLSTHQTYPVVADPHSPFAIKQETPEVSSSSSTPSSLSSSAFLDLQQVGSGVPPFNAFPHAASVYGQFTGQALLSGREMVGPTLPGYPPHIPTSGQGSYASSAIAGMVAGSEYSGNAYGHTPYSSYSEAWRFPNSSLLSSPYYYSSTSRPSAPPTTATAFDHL
UniProt P27540: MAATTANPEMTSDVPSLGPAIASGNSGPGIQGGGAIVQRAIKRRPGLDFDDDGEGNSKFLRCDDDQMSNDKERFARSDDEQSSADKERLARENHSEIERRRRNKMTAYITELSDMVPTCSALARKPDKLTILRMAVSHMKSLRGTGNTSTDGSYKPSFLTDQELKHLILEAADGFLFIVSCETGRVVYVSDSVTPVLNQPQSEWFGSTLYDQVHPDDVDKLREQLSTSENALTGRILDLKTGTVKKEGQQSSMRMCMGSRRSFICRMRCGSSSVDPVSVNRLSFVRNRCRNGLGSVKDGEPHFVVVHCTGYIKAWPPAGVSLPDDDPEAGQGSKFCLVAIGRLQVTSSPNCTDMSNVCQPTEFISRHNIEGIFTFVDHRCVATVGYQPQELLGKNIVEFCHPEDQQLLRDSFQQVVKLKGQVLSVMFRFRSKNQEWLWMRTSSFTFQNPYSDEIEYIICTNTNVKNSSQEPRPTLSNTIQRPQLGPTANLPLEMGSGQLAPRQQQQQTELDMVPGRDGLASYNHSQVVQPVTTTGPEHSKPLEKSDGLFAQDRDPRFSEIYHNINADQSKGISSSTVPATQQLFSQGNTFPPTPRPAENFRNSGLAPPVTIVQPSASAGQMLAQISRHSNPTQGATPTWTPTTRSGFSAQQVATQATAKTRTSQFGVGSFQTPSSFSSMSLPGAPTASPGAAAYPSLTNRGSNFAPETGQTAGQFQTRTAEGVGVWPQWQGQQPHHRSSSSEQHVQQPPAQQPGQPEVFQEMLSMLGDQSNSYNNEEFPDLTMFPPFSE

The text below walks through data of paper PMC9242860.

This assay addresses paired box 8 (PAX8) (human (endogenous in 786-M1A)) (UniProt Q06710). Briefly: affinity purification with mass spectrometry; RIME with PAX8 antibodies in 786-M1A cells; four replicates.

Turning to ARNT (from UniProt P27540 1-789), the binding entry is listed as “binds”.
